The source of these data is the odorant receptor screen of Mainland et al. (2015).

Structures are written as SMILES. Several values for one entry are separate records, joined by “and”; a condition that tells them apart may be missing. Identical values can stand only once. The list shows a part of the results. Each value is one well over the wells without odorant, computed here; the data are noisy.

Among the test systems are OR56B4 P277S clone 1224; OR5A1 I52V clone 1131; OR5A1 clone 1130; OR5A1 clone 1507; OR5A2 clone 1132; OR5AC2 M200I clone 1490; OR5AK2 M92I clone 1335; OR5AK2 clone 1438; OR5AK3 clone 1336; OR5AL1 clone 1362; OR5AN1 clone 1245; OR5AP2 clone 1209; OR5AR1 clone 1207; OR5AS1 clone 1135; OR5AU1 clone 1344; OR5B17 clone 1220; OR5B2 M200T clone 1246; OR5B21 I279F clone 1482; OR5B3 clone 1138.

Common to all, as to assay: odorant receptor activation (CRE luciferase / Renilla) (fold of no-odor wells); higher = more activation
Holding throughout (settings): 100 µM

For experiment [1], the system named is OR5AU1 L66F/I248V clone 1421.

Regarding `CCC(C)=O` [2-butanone], the odorant receptor activation was 1.05 in the experiment with OR56B4 P277S clone 1224; 0.757 in the experiment with OR5A1 I52V clone 1131; 1.38 in the experiment with OR5A1 clone 1130; 1.04 in the experiment with OR5A1 clone 1507; 1.23 in the experiment with OR5A2 clone 1132; 1.06 in the experiment on OR5AC2 M200I clone 1490. The odorant receptor activation with OR5AK2 M92I clone 1335 was determined as 0.869; with OR5AK2 clone 1438 it was 1.05; in the experiment on OR5AK3 clone 1336, 0.976; with OR5AL1 clone 1362, 1.42; in the experiment on OR5AN1 clone 1245 it was 1.26; in the experiment on OR5AP2 clone 1209 it was 0.814. Further, the odorant receptor activation in the experiment with OR5AR1 clone 1207 turned out to be 0.867; with OR5AS1 clone 1135, 1.25; in experiment [1], 1.27; with OR5AU1 clone 1344 it was 0.913; with OR5B17 clone 1220, 1.37; in the experiment on OR5B2 M200T clone 1246, 2.04. Further, the results for the odorant receptor activation in the experiment on OR5B21 I279F clone 1482 and in the experiment on OR5B3 clone 1138 were 0.888 and 1.26, respectively.

For `CS` [methanethiol], the odorant receptor activation in the experiment on OR56B4 P277S clone 1224 is 1.01; with OR5A1 I52V clone 1131, 0.811; in the experiment on OR5A1 clone 1130 it was 0.89; in the experiment on OR5A1 clone 1507, 1.06; in the experiment on OR5A2 clone 1132, 0.858; with OR5AC2 M200I clone 1490 it was 0.903. Moreover, the odorant receptor activation was 0.966 in the experiment on OR5AK2 M92I clone 1335; 1.09 with OR5AK2 clone 1438; 0.866 in the experiment on OR5AK3 clone 1336; 1.28 in the experiment with OR5AL1 clone 1362; 0.78 in the experiment with OR5AN1 clone 1245; 0.996 with OR5AP2 clone 1209. For the same molecule, the odorant receptor activation with OR5AR1 clone 1207 was 0.977; in the experiment with OR5AS1 clone 1135 it was 0.942; in [1] it was 0.929; with OR5AU1 clone 1344, 0.993; with OR5B17 clone 1220, 0.86; with OR5B2 M200T clone 1246 it was 0.858. The odorant receptor activation stood at 0.998 in the experiment on OR5B21 I279F clone 1482 and 0.817 in the experiment on OR5B3 clone 1138.

Take `CCOc1cc(C=O)ccc1O` [ethyl vanillin]: the odorant receptor activation with OR56B4 P277S clone 1224 is 1.5 and 1.24; in the experiment on OR5A1 I52V clone 1131, 1.72 and 1.26; in the experiment with OR5A1 clone 1130 it was 1.29 and 1.14; in the experiment with OR5A1 clone 1507 it was 1.31 and 2.72 and 1.2; in the experiment on OR5A2 clone 1132, 1.92 and 1.18; in the experiment with OR5AC2 M200I clone 1490 it was 1.68 and 1.95 and 1.03. Moreover, the odorant receptor activation was 0.519 and 1.15 in the experiment with OR5AK2 M92I clone 1335; 0.985 and 1.44 in the experiment with OR5AK2 clone 1438; 0.952 and 0.96 with OR5AK3 clone 1336; 1.03 and 1.28 in the experiment on OR5AL1 clone 1362; 1.02 and 1.04 with OR5AN1 clone 1245; 1.19 and 1.32 with OR5AP2 clone 1209. Besides, the odorant receptor activation is 1.39 and 1.33 in the experiment with OR5AR1 clone 1207; 2.29 and 1.24 in the experiment on OR5AS1 clone 1135; 0.924 and 1.46 in experiment [1]; 0.698 and 0.892 in the experiment with OR5AU1 clone 1344; 1.35 and 0.977 in the experiment with OR5B17 clone 1220; 0.953 and 1.06 with OR5B2 M200T clone 1246. The odorant receptor activation was 1.16 and 2.26 and 1.18 in the experiment on OR5B21 I279F clone 1482; 1.95 and 1.2 in the experiment with OR5B3 clone 1138.

For `CCCCOC(C)=O` [butyl acetate], the odorant receptor activation in the experiment on OR56B4 P277S clone 1224 came to 1.24; in the experiment with OR5A1 I52V clone 1131 it was 1; in the experiment with OR5A1 clone 1130 it was 0.848; with OR5A1 clone 1507, 1.01; in the experiment with OR5A2 clone 1132, 0.996; in the experiment on OR5AC2 M200I clone 1490 it was 1.05. The odorant receptor activation with OR5AK2 M92I clone 1335 amounted to 0.63; in the experiment with OR5AK2 clone 1438 it was 0.195; in the experiment with OR5AK3 clone 1336, 0.94; with OR5AL1 clone 1362, 0.196; with OR5AN1 clone 1245 it was 0.714; in the experiment with OR5AP2 clone 1209, 1.02. The odorant receptor activation was 1.02 in the experiment with OR5AR1 clone 1207; 1.24 with OR5AS1 clone 1135; 0.429 in experiment [1]; 0.689 in the experiment with OR5AU1 clone 1344; 0.978 in the experiment with OR5B17 clone 1220; 1.08 in the experiment on OR5B2 M200T clone 1246. The results for the odorant receptor activation in the experiment on OR5B21 I279F clone 1482 and in the experiment on OR5B3 clone 1138 were 0.855 and 1.11, respectively.
